Laboratory results published in paper PMC8726646.
These are yes or no findings as the source states them, for the method shown. Binding seen in cells or lysates may run through a third protein. Some entries that bind do so weakly or less than the wild type.

Amino acid sequences for entries named in this document (tags omitted).
UniProt P37231: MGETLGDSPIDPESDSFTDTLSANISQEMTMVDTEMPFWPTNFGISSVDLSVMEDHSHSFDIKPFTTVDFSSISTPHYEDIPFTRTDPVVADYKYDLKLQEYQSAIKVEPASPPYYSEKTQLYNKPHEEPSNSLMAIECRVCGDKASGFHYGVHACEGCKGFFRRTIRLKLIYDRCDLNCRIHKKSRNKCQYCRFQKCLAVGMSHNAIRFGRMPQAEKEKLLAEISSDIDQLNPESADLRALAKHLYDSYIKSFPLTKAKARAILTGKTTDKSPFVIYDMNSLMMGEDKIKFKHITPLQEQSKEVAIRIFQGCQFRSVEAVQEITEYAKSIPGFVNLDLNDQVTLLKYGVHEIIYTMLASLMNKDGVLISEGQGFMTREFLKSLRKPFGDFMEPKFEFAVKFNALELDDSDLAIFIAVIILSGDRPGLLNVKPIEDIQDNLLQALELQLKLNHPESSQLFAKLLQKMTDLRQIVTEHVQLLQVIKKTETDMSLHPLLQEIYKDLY
UniProt Q15208: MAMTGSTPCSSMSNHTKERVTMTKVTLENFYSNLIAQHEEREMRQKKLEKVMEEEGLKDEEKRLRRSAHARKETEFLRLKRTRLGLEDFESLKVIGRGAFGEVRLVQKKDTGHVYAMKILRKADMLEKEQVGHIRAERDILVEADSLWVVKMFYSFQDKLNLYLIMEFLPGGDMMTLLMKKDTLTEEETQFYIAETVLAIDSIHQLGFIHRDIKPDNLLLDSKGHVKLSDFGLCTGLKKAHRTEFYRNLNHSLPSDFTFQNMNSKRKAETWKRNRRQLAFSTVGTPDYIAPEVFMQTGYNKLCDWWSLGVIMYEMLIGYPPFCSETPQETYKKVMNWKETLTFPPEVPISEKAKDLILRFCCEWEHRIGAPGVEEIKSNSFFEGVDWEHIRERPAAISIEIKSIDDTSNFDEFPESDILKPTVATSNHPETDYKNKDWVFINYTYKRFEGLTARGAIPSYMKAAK

Target: Flag-PPARγ, transfected in HEK293 cells (UniProt P37231)
Assay: co-IP; HEK293 cells (methods: HEK-293 T) co-transfected with Flag- and Myc-tagged proteins, lysed in RIPA buffer 48 h after transfection; anti-Flag beads overnight at 4°C; Western blot with anti-Flag or anti-Myc antibody

binding: binds
Substance: Myc-STK38, transfected in HEK293 cells (from UniProt Q15208 1-465) (enzyme)
